# Where a name gives a salt, the structure may show the parent alone. This is one part of the list. This data set is noisy: repeats of one test often differ as much as different tests do.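 Human U-2 OS cells stably expressing a GFP sensor with a nuclear import signal and classical export signal were transfected to produce PR50, a 50-repeat proline–arginine dipeptide from ALS/FTD gene C9ORF72. Nuclear-minus-cytoplasm GFP was scaled from DMSO (low) to PR-only (high), scored against plate test wells; strongly negative scores marked PR-reversing hits.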
# Tested on: U-2 OS NCT-C biosensor cells expressing PR50
# Assay: Z-score of normalised NCT-C biosensor translocation index in PR50-expressing cells; higher = more nuclear biosensor (more disrupted nuclear export)
# Conditions: 3 µM; 24 h
row,Compound,Z-score
1,CO/N=C(\C(=O)N[C@@H]1C(=O)N2C(C(=O)O)=C(COC(C)=O)CS[C@H]12)c1csc(N)n1 [Cefotaxime Acid],inactive: 0.801
2,CO/N=C(\C(=O)N[C@@H]1C(=O)N2C(C(=O)O)=C(COC(C)=O)CS[C@H]12)c1csc(N)n1 [Cefotaxime sodium salt],inactive: -0.391
3,C=C[C@](C)(O)CC[C@@H]1[C@@]2(C)CCCC(C)(C)[C@@H]2CC[C@@]1(C)O [Sclareol],inactive: 0.486
4,C[C@]12CC[C@@H]3c4ccc(O)cc4C[C@@H](CCCCCCCCC[S+]([O-])CCCC(F)(F)C(F)(F)F)[C@H]3[C@@H]1CC[C@@H]2O (stereo partly drawn) [Fulvestrant],inactive: 0.695
5,COc1cc(CNC(=O)CCCC/C=C/C(C)C)ccc1O [Capsaicin],inactive: 0.201
6,Cc1ccc(NC(=O)CCCCCC(=O)Nc2ccccc2N)cc1,inactive: -1.8
7,CC(C)[N+]1(C)[C@@H]2CC[C@H]1C[C@@H](OC(=O)C(CO)c1ccccc1)C2 (stereo partly drawn) [Ipratropium bromide],inactive: -0.469
8,Cc1ccc(-c2cc(C(F)(F)F)nn2-c2ccc(S(N)(=O)=O)cc2)cc1 [Celecoxib],inactive: 0.283
9,CN[C@H]1CC[C@@H](c2ccc(Cl)c(Cl)c2)c2ccccc21 [Sertraline hydrochloride],inactive: 0.645
10,CN[C@H]1CC[C@@H](c2ccc(Cl)c(Cl)c2)c2ccccc21 [Sertraline·HCl],inactive: -0.49
11,COCCNC(=O)COc1ccc(OCCNC[C@H](O)COc2ccccc2)cc1 [ZD 7114  hydrochloride],inactive: -0.169
12,CC[C@H]1OC(=O)[C@H](C)[C@@H](O[C@H]2C[C@@](C)(OC)[C@@H](O)[C@H](C)O2)[C@H](C)[C@@H](O[C@@H]2O[C@H](C)C[C@H](N(C)C)[C@H]2O)[C@](C)(O)C[C@@H](C)CN(C)[C@H](C)[C@@H](O)[C@]1(C)O [Azithromycin],inactive: 0.67
13,c1ccc2c(c1)CC(N1CCN(c3cccc4c3OCCO4)CC1)C2,inactive: 0.504
14,O=C(O)c1ccc(-c2ccc(C=C3SC(=S)N(Cc4ccccc4)C3=O)o2)cc1 [Leukadherin-1],inactive: -1.22
15,CCN(CC)CCNC(=O)c1ccc(N)cc1 [Procainamide hydrochloride],inactive: -1.02
16,CCN(CC)CCNC(=O)c1ccc(N)cc1 [Procainamide·HCl],active: -2.35
17,NC[C@H](O)c1ccc(O)c(O)c1 [Norepinephrine Bitartrate Monohydrate],inactive: 2.87
18,"O=C(O)c1ccnc(C(=O)O)c1 [2,4-Pyridinedicarboxylic Acid]",inactive: -0.484
19,Cn1c(=O)c2c(ncn2CC2OCCO2)n(C)c1=O [Doxofylline],inactive: -0.62
20,CCCc1cc(C)[nH]c(=O)c1CNC(=O)c1cc(-c2ccnc(N3CCN(C)CC3)c2)cc2c1cnn2C(C)C,inactive: -1.95
21,O=C1c2c(O)cc(O)cc2O[C@H](c2ccc(O)c(O)c2)[C@H]1O (racemic) [(±)-Taxifolin],inactive: -0.0984

row,Compound,Z-score
1,CN1CCN(CC(=O)N2c3ccccc3C(=O)Nc3cccnc32)CC1 [Pirenzepine dihydrochloride],inactive: -0.713
2,COc1ccc2cc1Oc1ccc(cc1)C[C@@H]1c3cc(c(OC)cc3CCN1C)Oc1c(OC)c(OC)cc3c1[C@H](C2)N(C)CC3 [Isotetrandrine],inactive: -0.645
3,CN(C)CCC(c1ccc(Br)cc1)c1ccccn1 (stereo not drawn) [Brompheniramine Maleate],inactive: 0.0683
4,CN(C)CCC(c1ccc(Br)cc1)c1ccccn1 (stereo not drawn) [(+)-  Brompheniramine maleate salt],inactive: 3.73
5,COc1cc2ncnc(Nc3cccc(Br)c3)c2cc1OC,inactive: 3.65
6,COc1ccc2cc1Oc1ccc(cc1)C[C@H]1c3cc(c(OC)cc3CCN1C)Oc1c(OC)c(OC)c(OC)c3c1[C@H](C2)N(C)CC3 [Hernandezine],inactive: -0.31
7,O=c1[nH]c2ccccc2n1CCN1CCN(c2cccc(C(F)(F)F)c2)CC1 [Flibanserin],inactive: 0.384
8,"COc1ccccc1N1CCN(CCCNc2c(C)c(=O)n(C)c(=O)n2C)CC1 [Urapidil, 5-Methyl-]",inactive: -0.367
9,COC(=O)C1=C(C)NC(C)=C(C(=O)OC(C)(C)CN(C)CCC(c2ccccc2)c2ccccc2)C1c1cccc([N+](=O)[O-])c1 (stereo not drawn) [Lercanidipine hydrochloride hemihydrate],inactive: 0.0353
10,C[C@]12CCC(=O)C=C1CC[C@@H]1[C@@H]2CC[C@@]2(C)[C@H]1CC[C@]2(O)C(=O)CO [Cortexolone],inactive: 1.97
11,O=C(Nc1cccnc1)c1cc(-c2ccnc(F)c2)ccc1OCc1ccccc1,inactive: -0.107
12,CCC1(c2ccccc2)C(=O)NCNC1=O [Primidone],inactive: 0.348
13,CCCCCCCCCC(=O)N[C@@H](Cc1c[nH]c2ccccc12)C(=O)N[C@H](CC(N)=O)C(=O)N[C@@H](CC(=O)O)C(=O)N[C@@H]1C(=O)NCC(=O)N[C@@H](CCCN)C(=O)N[C@@H](CC(=O)O)C(=O)N[C@H](C)C(=O)N[C@@H](CC(=O)O)C(=O)NCC(=O)N[C@H](CO)C(=O)N[C@@H]([C@H](C)CC(=O)O)C(=O)N[C@@H](CC(=O)c2ccccc2N)C(=O)O[C@@H]1C [Daptomycin],inactive: -0.148
14,CC1CCN(CC[C@H]2CCCN2S(=O)(=O)c2cccc(O)c2)CC1,inactive: -0.48
15,CCOc1nc2cccc(C(=O)O)c2n1Cc1ccc(-c2ccccc2-c2nnn[nH]2)cc1 [Candesartan],inactive: 0.517
16,C[C@@](Cc1ccc(O)c(O)c1)(NN)C(=O)O [S(-)-Carbidopa . monohydrate],inactive: 0.519
17,NC(=O)[C@@H]1CSSCCC(=O)N[C@@H](CCCCN=C(N)N)C(=O)NCC(=O)N[C@@H](CC(=O)O)C(=O)N[C@@H](Cc2c[nH]c3ccccc23)C(=O)N2CCC[C@H]2C(=O)N1 [Eptifibatide acetate],inactive: 0.0908
18,NC[C@@H]1O[C@H](C23CC4CC(CC(C4)C2)C3)Cc2c1ccc(O)c2O,inactive: 0.486
19,COc1ccc([C@@H]2CC(=O)c3c(O)cc(OC4O[C@H](CO[C@H]5O[C@@H](C)[C@@H](O)[C@@H](O)[C@H]5O)[C@H](O)[C@H](O)[C@H]4O)cc3O2)cc1O (stereo partly drawn) [Hesperidine],inactive: -0.783
20,Cl.N[C@@H](CCC(=O)O)C(=O)O [L-Glutamic acid hydrochloride],inactive: -0.596
21,Clc1ccc2c(c1)CCc1cccnc1C2=C1CCNCC1 [Desloratadine],inactive: 0.249

# As entered above:
# In Z-score, Clc1ccc2c(c1)CCc1cccnc1C2=C1CCNCC1 [Desloratadine] is entered as inactive: 0.249
# In Z-score, COc1ccccc1N1CCN(CCCNc2c(C)c(=O)n(C)c(=O)n2C)CC1 [Urapidil, 5-Methyl-] is entered as inactive: -0.367
# In Z-score, CN[C@H]1CC[C@@H](c2ccc(Cl)c(Cl)c2)c2ccccc21 [Sertraline·HCl] is entered as inactive: -0.49
# In Z-score, O=c1[nH]c2ccccc2n1CCN1CCN(c2cccc(C(F)(F)F)c2)CC1 [Flibanserin] is entered as inactive: 0.384
# In Z-score, Cc1ccc(NC(=O)CCCCCC(=O)Nc2ccccc2N)cc1 is entered as inactive: -1.8
# In Z-score, COc1ccc([C@@H]2CC(=O)c3c(O)cc(OC4O[C@H](CO[C@H]5O[C@@H](C)[C@@H](O)[C@@H](O)[C@H]5O)[C@H](O)[C@H](O)[C@H]4O)cc3O2)cc1O (stereo partly drawn) [Hesperidine] is entered as inactive: -0.783

# The listing continues:

row,Compound,Z-score
1,O=C1NCC2(CCN(CCc3ccccc3)CC2)O1 [Fenspiride hydrochloride],inactive: 0.0203
2,Cc1cc(C)c(S(=O)(=O)N(CCc2cccc(Br)c2)Cc2ccc(-c3cccc(S(C)(=O)=O)c3)cc2)c(C)c1,inactive: -0.424
3,CSC(=N)N [S-Methyl isothiourea hemisulfate],inactive: -0.544
4,CN(C)CCOC(c1ccccc1)c1ccccc1.Cn1c(=O)c2[nH]c(Cl)nc2n(C)c1=O [Dimenhydrinate],inactive: -0.291
5,O=C(CCCCCN1CCN(c2ccccc2-c2ccccc2)CC1)NC1CCCc2ccccc21 (stereo not drawn) [LP 12  hydrochloride hydrate],inactive: -0.622
6,O=C1NC(=O)c2cc(Nc3ccccc3)c(Nc3ccccc3)cc21,inactive: 4.07
7,Cc1[nH]cnc1CN1CCc2c(c3ccccc3n2C)C1=O [Alosetron·HCl],inactive: -0.162
8,O=C(O)CCc1ccc(NCc2cccc(Oc3ccccc3)c2)cc1,inactive: -0.415
9,CCN(CC)C(=O)c1ccc(O)c(OC)c1 [Vanillic acid diethylamide],inactive: -0.132
10,NC1(C(=O)O)CC1 [1-  Aminocyclopropanec arboxylic acid Hydrochloride],inactive: -0.266
11,C[C@H]1[C@H](C)CC[C@]2(C(=O)O)CC[C@]3(C)C(=CC[C@@H]4[C@@]5(C)CC[C@H](O)C(C)(C)[C@@H]5CC[C@]43C)[C@H]12 [Ursolic acid],inactive: -0.537
12,O=C(c1ccc(F)cc1)C1CCN(CCn2c(=O)[nH]c3ccccc3c2=O)CC1 [Ketanserin tartrate],inactive: -0.703
13,COc1cccc2c(NCc3ccccc3)nc(-n3c(N)nc4ccccc43)nc12,inactive: -0.437
14,CC=CC(=O)N(CC)c1ccccc1C [Crotamiton],inactive: 0.163
15,NCCCCCC(=O)O [Aminocaproic Acid],inactive: 0.11
16,CN(C)C(=N)NC(=N)N [Metformin·HCl],inactive: -1.66
17,Nc1nc2c(ncn2COC(CO)CO)c(=O)[nH]1 [Ganciclovir],inactive: -0.119
18,CO[C@H]1/C=C/O[C@@]2(C)Oc3c(C)c(O)c4c(O)c(c5c(nc6cc(C)ccn65)c4c3C2=O)NC(=O)/C(C)=C\C=C\[C@H](C)[C@H](O)[C@@H](C)[C@@H](O)[C@@H](C)[C@H](OC(C)=O)[C@@H]1C [Rifaximin],inactive: -0.391
19,CN1CCN(C2Cc3ccccc3Sc3ccc(Cl)cc32)CC1 (racemic) [(±)-Octoclothepin maleate],inactive: 0.258
20,Clc1cccc(Cl)c1NC1=NCCN1 [Clonidine·HCl],inactive: 0.698
21,Clc1cccc(Cl)c1NC1=NCCN1 [Clonidine hydrochloride],inactive: -0.724
